This is an account of results in publication PMC5663490 (PLoS ONE, 2017).

These are yes or no findings as the source states them, for the method shown. Binding calls can cover weak binding; strength is not graded here. Where a sequence is shown, tags or fusion partners need not be part of it.

In assay [1] the target is Sx1_(1-261)-His (rat). Put plainly: pull-down; His-tagged Syntaxin incubated with detagged Munc18 (1:2 molar ratio) for 2 h, 24 h and 48 h at 4°C, then TALON Co2+ resin 1 h at 4°C; washed with 25 mM TrisHCl pH 7.5, 150 mM NaCl, 10% glycerol, 0.1% Triton-X 100, 15 mM imidazole, 2 mM β-ME; SDS-PAGE, Coomassie Blue; both purified.
Assay [2] has as its target ΔNSx1_(25-261)-His (rat). The description is as above.

B1: detagged Munc18c (protein, UniProt Q60770 1-592)
chain: MAPPVSERGLKSVVWRKIKTAVFDDCRKEGEWKIMLLDEFTTKLLSSCCKMTDLLEEGITVIENIYKNREPVRQMKALYFISPTPKSVDCFLRDFGSKSEKKYKAAYIYFTDFCPDSLFNKIKASCSKSIRRCKEINISFIPQESQVYTLDVPDAFYYCYSPDPSNASRKEVVMEAMAEQIVTVCATLDENPGVRYKSKPLDNASKLAQLVEKKLEDYYKIDEKGLIKGKTQSQLLIIDRGFDPVSTVLHELTFQAMAYDLLPIENDTYKYKTDGKEKEAVLEEDDDLWVRVRHRHIAVVLEEIPKLMKEISSTKKATEGKTSLSALTQLMKKMPHFRKQISKQVVHLNLAEDCMNKFKLNIEKLCKTEQDLALGTDAEGQRVKDSMLVLLPVLLNKNHDNCDKIRAVLLYIFGINGTTEENLDRLIHNVKIEDDSDMIRNWSHLGVPIVPPSQQAKPLRKDRSAEETFQLSRWTPFIKDIMEDAIDNRLDSKEWPYCSRCPAVWNGSGAVSARQKPRTNYLELDRKNGSRLIIFVIGGITYSEMRCAYEVSQAHKSCEVIIGSTHILTPRKLLDDIKMLNKSKDKVSFKDE
B1: the binding entry is reported as “binds” in assay [1] and “binds weakly” in assay [2].
